# Not every detail of the peptide structures is certain; ends, links or a residue may be inferred. At least one compound was matched to its structure with a doubt left.
# Experiments:
# Assay type in all cases: cell-based
# [1] = test system: Super Oxyde Dismutase (SOD); test: SOD activity revealed on native PAGE gel (NBT/riboflavin staining) from extracts of treated fibroblasts
# Catalase = Catalase activity assay (spectrophotometric H2O2 disappearance at 240 nm) on extracts of treated fibroblasts; conditions: actif 1 % 24 h before, during UVB 100 mJ/cm^2 and 30 min after; versus untreated cells
# fibroblastes primaires [2] = test: Protein carbonylation assay (EIA/ELISA with DNP) on treated fibroblasts
# fibroblastes primaires [3] = test: Lipid peroxidation assay (MDA-TBA, 532 nm) on treated fibroblasts; conditions: for % d'inhibition par rapport aux conditions contrôles: MDA; for Quantité de MDA: actif 1 %
# fibroblastes primaires [4] = test: Comet assay (Single Cell Gel Electrophoresis) for DNA lesions; conditions: for % du « Tail Moment » par rapport au contrôle UV: UV control (- actif / + UVB) = 100
smiles,measurement,setting,value
N[C@@H](CSSC[C@H](N)C(=O)NCC(=O)O)C(=O)NCC(=O)O [actif],"intensité des bandes, représentative de l'activité de la SOD",[1]; UVB-irradiated cells with actif versus irradiated cells without actif,double
same,% d'intensité des bandes Achromatiques,"[1]; actif 1 % 24 h before, during and 24 h after UVB 100 mJ/cm^2, - actif / + UVB = 146,15","292,31%"
same,% d'intensité des bandes Achromatiques,"[1]; actif 1 %, no UVB, control - actif / - UVB = 100","123,08%"
same,activité de la catalase,Catalase,augmentation de l'activité de la catalase
same,Concentration en gpt carbonyl,"fibroblastes primaires [2]; actif 1 % 24 h before and during UVB 100 mJ/cm^2, - actif / + UVB = 2,57","1,90 µmol/g de prot."
same,Concentration en gpt carbonyl,"fibroblastes primaires [2]; actif 1 %, no UVB, control -actif / - UVB = 2,31","1,92 µmol/g de prot."
same,% d'inhibition par rapport aux conditions contrôles,"fibroblastes primaires [3]; UVA 5 J/cm^2, versus UVA CTR","- 34,34%"
same,% d'inhibition par rapport aux conditions contrôles,"fibroblastes primaires [3]; no UVA, versus CTR","- 13,45%"
same,Quantité de MDA,"fibroblastes primaires [3]; UVA 5 J/cm^2, UVA CTR = 955",627 pg/mg de protéines
same,Quantité de MDA,"fibroblastes primaires [3]; no UVA, CTR = 743",673 pg/mg de protéines
same,Mesure du « Tail Moment »,"fibroblastes primaires [4]; actif 1 % 24 h before, during and 24 h after UVB 100 mJ/cm^2, - actif / + UVB = 88592,41","23696,54"
same,% du « Tail Moment » par rapport au contrôle UV,"fibroblastes primaires [4]; actif 1 %, UVB 100 mJ/cm^2","26,75%"
same,Mesure du « Tail Moment »,"fibroblastes primaires [4]; actif 1 %, no UVB, - actif / - UVB = 2648,51","1576,82"
same,% du « Tail Moment » par rapport au contrôle UV,"fibroblastes primaires [4]; actif 1 %, no UVB","1,78%"
same,protection (de l'ADN) qui augmente,fibroblastes primaires [4]; irradiated cells treated with actif versus untreated irradiated cells,73%

# Reference: patent EP1799188B1, “USE OF PEPTIDES AS AN ANTIOXIDANT AGENT FOR THE PREPARATION OF A COSMETIC AND/OR PHARMACEUTICAL COMPOSITION” (Ashland Specialties France, priority 2004, dated 2015)
